This test is described as follows: qHTS Assay for Lipid Storage Modulators in Drosophila S3 Cells.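 On cell number change: cells counted by Cell Tracker Red CMTPX staining in the red channel.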 The note with it: BODIPY lipid droplet fluorescence, 18-24 h; for cell number change: measured here: cell count max response, cells fed with added oleic acid. In short, it runs like this:
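Laser-scanning cytometry quantifies lipid droplet accumulation (500–530 nm total intensity; droplet/cell object ratio) in oleic acid-fed (400 uM added) Drosophila S3 cells treated with a concentration series. 20 uM Triacsin C defined 100% inhibition.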
Background: In qHTS, concentration-response curves come from the screen itself.

[1] abbreviates: measured here: cell number channel AC50, cells fed with added oleic acid.
Setting [2] is: measured here: lipid fluorescence (Fed channel) AC50, cells fed with added oleic acid.

This is one part of the list. The main result of the screen is listed elsewhere. These columns were measured beside it and carry no call. Most of these compounds were active or inconclusive in the main read-out, so they are no random draw. Potencies come from curve fits of mixed quality, noted in brackets.

In general, AC50 refers to the concentration giving half of the maximal activity seen. A lower AC50 goes with activity at low concentration.

In the case of `Nc1nc(CN2CCN(c3ccccn3)CC2)nc(Nc2ccc(Cl)cc2)n1`, the cell number change was determined as 106%. Further, the AC50 under setting [1] was 9.2 µM [rising, partial curve]. Besides, the AC50 under setting [2] is 4.61 µM [rising, partial curve].
Regarding `Cc1ccc(C(C)C)c(OCC(O)CN2CCc3ccccc3C2)c1` (centres undefined), the cell number change was -49.3%. The AC50 under setting [1] is 23.1 µM [falling, single point].
For the compound `CC(NC(=O)NC1CCCCC1)c1ccc2c(c1)OCO2` (centres undefined), the cell number change was -36%. The AC50 under setting [1] is 2.59 µM [falling, full curve]. Under setting [2], the AC50 is 6.51 µM [falling, single point].
As to `Cc1cccc(COc2ncnc3nc[nH]c23)c1`, the cell number change was -3.37%. The AC50 under setting [2] was 6.51 µM [rising, partial curve].
For `Cc1cc(C)n2c(=S)[nH]nc2n1`, the cell number change is -33.2%. The AC50 under setting [1] is 6.51 µM [falling, full curve, poor fit].
Take `CCNc1nc(NC(N)=S)nc(NC(C)(C)C)n1`: the cell number change amounted to 7.09%. Further, the AC50 under setting [2] was 0.0058 µM [rising, full curve, poor fit].
For the compound `COc1cc(OC)c(NC(=O)Cn2cnc3sc(C)c(S(=O)(=O)N4CCOCC4)c3c2=O)cc1Cl`, the cell number change is -23.8%. Moreover, the AC50 under setting [1] was 0.146 µM [falling, full curve, poor fit].
Regarding `Nc1nc(-c2cc3c(cc2Cl)OCCO3)cs1`, the cell number change was -32.8%. Besides, under setting [1], the AC50 is 14.6 µM [falling, partial curve, poor fit].
On to `COc1ccc(Nc2cc(C(=O)NCCCN3CCOCC3)c3ccccc3n2)c(OC)c1`, for which, under setting [2], the AC50 is 0.116 µM [falling, full curve, poor fit].
For the compound `COC(=O)C1CN(C(=O)c2ccc(OC(F)F)cc2)c2ccccc2O1` (centres undefined), the cell number change was 2.25%.
Consider `Cc1ccc(-c2nn(-c3ccccc3)cc2NC(=O)CCl)cc1`, for which the cell number change is -75%. Further, under setting [1], the AC50 was 29.1 µM [falling, single point]. The AC50 under setting [2] is 29.1 µM [falling, single point].
As to `CCOC(=O)c1cnc(SCc2cccc3ccccc23)nc1N`, the AC50 by setting is: under setting [1], 4.61 µM [rising, partial curve]; under setting [2], 0.651 µM [rising, single point].
Consider `CCCCCC(=O)Nc1ccc(S(=O)(=O)Nc2cc(OC)nc(OC)n2)cc1`, for which the cell number change came to 36.9%. In addition, under setting [1], the AC50 is 7.31 µM [rising, partial curve]. In addition, under setting [2], the AC50 is 6.51 µM [rising, single point].
`COC(=O)c1ccccc1NC(=O)Nc1ccc(C)cn1`: the cell number change is 104%. For the same compound, the concentration at half-maximal activity (AC50) under setting [1] was 18.4 µM [rising, single point].
With `Cc1cc(OC(=O)c2ccc(Cl)cc2Cl)nc(C)n1`, the cell number change was -22.7%. Further, the AC50 under setting [2] is 29.1 µM [falling, single point].
Consider `COc1ccccc1CC(NC(C)=O)C(=O)NC1CCN(C(=O)Nc2ccc(F)cc2)CC1` (centres undefined), for which the cell number change is -3.85%.
In the case of `COc1cc(C2C(C#N)=C(N)Oc3cc(N)ccc32)cc(OC)c1OC` (centres undefined), the cell number change was -29.7%. The AC50 under setting [1] is 4.11 µM [falling, full curve, poor fit]. For the same compound, the AC50 under setting [2] was 5.8 µM [falling, single point].
`COC(=O)C(Cc1ccccc1)NC(=O)CSc1nc(C)cc(=O)[nH]1` (centres undefined): the cell number change was -44.7%. The AC50 under setting [1] is 16.4 µM [falling, single point]. Moreover, the AC50 under setting [2] was 0.82 µM [falling, full curve].
As to `COc1cccc(N2CCN(S(=O)(=O)c3ccc4ccccc4c3)CC2)c1`, the cell number change turned out to be 1.16%. In addition, the AC50 under setting [2] was 5.8 µM [falling, single point].
In the case of `CC(=O)Nc1ccc(S(=O)(=O)Nc2cc3c(cc2C(C)=O)OCO3)cc1`, the cell number change came to 15.1%. The AC50 under setting [2] was 6.51 µM [rising, single point].
Take `COc1ccccc1CN1CCN(Cc2nc(-c3ccc(C)cc3)oc2C)CC1`: the cell number change was -8.63%. The AC50 under setting [2] was 0.731 µM [rising, full curve, poor fit].
For the compound `CCOC(=O)CSC1=C(C#N)C(=O)NC2(CCCCC2)S1`, the cell number change came to 30.6%. For the same compound, under setting [1], the AC50 is 29.1 µM [rising, single point].
Consider `NC(=O)CCN(Cc1ccccc1)S(=O)(=O)c1ccccc1`, for which the cell number change is -31.7%. Under setting [2], the AC50 was 5.8 µM [falling, partial curve, poor fit].
Turning to `Cc1cc(C)n(-c2nc3c(c(=O)[nH]c(=O)n3C)n2C)n1`, the cell number change was determined as 35.5%. Also, under setting [1], the half-maximal activity concentration (AC50) was 16.4 µM [rising, single point].
On to `CCC1(CC)Cc2ccccc2C(CC(=O)N2CCOCC2)=N1`, for which the AC50 was 6.51 µM [rising, single point] under setting [1] and 0.651 µM [rising, single point] under setting [2].
`Clc1ccccc1Nc1nnc(-c2ccncc2)s1`: the cell number change was -1.08%. Besides, the AC50 under setting [2] was 4.11 µM [rising, single point].
For the compound `NC(=O)C1CCN(C(=O)c2cccc(S(=O)(=O)N3CCCC3)c2)CC1`, the cell number change was -5.1%. The AC50 under setting [2] was 11.6 µM [falling, partial curve].
As for `Cc1cc(C)nc(NN2C(=O)C=CC2=O)n1`, the cell number change was -65.7%. Under setting [1], the AC50 was 29.1 µM [falling, single point]. Further, the AC50 under setting [2] is 29.1 µM [falling, single point].
On to `COc1ccc(C(=O)NC(CO)c2nnc(SCc3ccc(Cl)c(Cl)c3)n2C)cc1` (centres undefined), for which the cell number change was determined as 1.04%. In addition, the AC50 under setting [2] is 7.31 µM [rising, partial curve].
Regarding `Cc1ccc(S(=O)(=O)N2CCOCC2)cc1C(=O)NCCN1C(=O)S/C(=C\c2ccccc2Cl)C1=O`, the cell number change was -9.04%.
On the same count and under the same terms, with `CCOC(=O)C1=C(C)Nc2nc(SCC)nn2C1c1ccc(OC)cc1` (centres undefined) the figure was 7.59%.
`CCOc1ccc(N(CC(=O)OC)S(=O)(=O)c2ccc(OC)c(OC)c2)cc1`: under setting [2], the AC50 is 6.51 µM [rising, partial curve, poor fit].
Turning to `COc1ccc(C(=O)Nc2cccc(-c3nc4ncccc4o3)c2C)cc1OC`, the AC50 runs as follows: under setting [1], 0.291 µM [rising, partial curve, poor fit]; under setting [2], 0.259 µM [rising, full curve, poor fit].
With `COc1ccc(C(=O)N/N=C/c2cn[nH]c2-c2ccc(OC)cc2OC)cc1`, the cell number change is 22.3%. Also, the AC50 under setting [2] is 5.8 µM [rising, full curve, poor fit].
Consider `FC(F)(F)c1cccc(NC(=S)N2CCCC2)c1`, for which the AC50 is, setting by setting: under setting [1], 0.082 µM [rising, full curve, poor fit]; under setting [2], 0.13 µM [rising, full curve].
Consider `NC(=O)c1ccc(NC(=O)COC(=O)c2cc([N+](=O)[O-])ccc2N2CCOCC2)cc1`, for which the cell number change was 33.9%. In addition, the concentration at half-maximal activity (AC50) under setting [1] was 9.2 µM [rising, partial curve]. Besides, the AC50 under setting [2] is 6.51 µM [falling, single point].

Source of the values: PubChem BioAssay AID2685 (National Center for Advancing Translational Sciences (NCATS), 2010).
